Results are given in words; binding and its absence hold for the method and conditions named. Binding seen in cells or lysates may run through a third protein. Some results given as binding are weak or reduced against the parent protein; the word gives no strength. For some assays here: Sequences can lack the tags named with a protein.
Tests used:
Experiment in all cases: co-IP
[1] = biological target: T1, myc-tagged FBXO3 (human) (UniProt Q9UK99)
T1 sequence: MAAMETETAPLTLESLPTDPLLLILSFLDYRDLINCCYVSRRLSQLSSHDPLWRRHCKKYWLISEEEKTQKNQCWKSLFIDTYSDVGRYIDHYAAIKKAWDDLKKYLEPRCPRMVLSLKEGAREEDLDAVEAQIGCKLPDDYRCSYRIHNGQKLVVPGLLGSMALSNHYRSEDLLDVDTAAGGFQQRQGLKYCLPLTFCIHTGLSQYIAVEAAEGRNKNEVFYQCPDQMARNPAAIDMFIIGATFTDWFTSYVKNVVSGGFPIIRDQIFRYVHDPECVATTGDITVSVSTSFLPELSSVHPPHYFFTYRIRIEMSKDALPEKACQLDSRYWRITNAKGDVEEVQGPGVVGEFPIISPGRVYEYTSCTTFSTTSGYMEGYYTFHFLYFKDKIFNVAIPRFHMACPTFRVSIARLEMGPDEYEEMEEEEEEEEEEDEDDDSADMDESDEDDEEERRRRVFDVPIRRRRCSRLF

[2] = biological target: T2, myc-tagged FBXO6 (human) (UniProt Q9NRD1)
T2 sequence: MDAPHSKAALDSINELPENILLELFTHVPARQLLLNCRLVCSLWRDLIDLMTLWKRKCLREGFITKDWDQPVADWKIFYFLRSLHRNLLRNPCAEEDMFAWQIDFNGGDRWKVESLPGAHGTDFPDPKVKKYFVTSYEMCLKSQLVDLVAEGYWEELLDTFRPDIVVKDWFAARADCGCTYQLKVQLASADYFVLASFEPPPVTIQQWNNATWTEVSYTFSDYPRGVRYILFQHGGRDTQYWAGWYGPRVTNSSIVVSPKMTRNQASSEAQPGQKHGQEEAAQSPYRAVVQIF

[3] = biological target: T3, myc-tagged FBXW2 (human) (UniProt Q9UKT8)
T3 sequence: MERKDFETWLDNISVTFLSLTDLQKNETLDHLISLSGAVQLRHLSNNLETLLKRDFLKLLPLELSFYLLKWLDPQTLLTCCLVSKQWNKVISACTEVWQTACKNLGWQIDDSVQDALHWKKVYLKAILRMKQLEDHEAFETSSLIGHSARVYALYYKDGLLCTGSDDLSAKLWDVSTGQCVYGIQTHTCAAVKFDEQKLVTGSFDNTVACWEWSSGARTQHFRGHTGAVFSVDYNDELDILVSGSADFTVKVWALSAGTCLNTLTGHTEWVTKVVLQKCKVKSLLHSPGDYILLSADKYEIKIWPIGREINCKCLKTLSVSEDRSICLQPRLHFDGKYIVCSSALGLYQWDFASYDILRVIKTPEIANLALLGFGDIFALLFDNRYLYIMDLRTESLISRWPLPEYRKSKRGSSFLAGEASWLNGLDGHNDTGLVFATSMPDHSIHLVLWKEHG

[4] = biological target: T4, Apoptosis inhibitor 5 (Api5), endogenous (human (endogenous in MCF7)) (UniProt Q9BZZ5)
T4 sequence: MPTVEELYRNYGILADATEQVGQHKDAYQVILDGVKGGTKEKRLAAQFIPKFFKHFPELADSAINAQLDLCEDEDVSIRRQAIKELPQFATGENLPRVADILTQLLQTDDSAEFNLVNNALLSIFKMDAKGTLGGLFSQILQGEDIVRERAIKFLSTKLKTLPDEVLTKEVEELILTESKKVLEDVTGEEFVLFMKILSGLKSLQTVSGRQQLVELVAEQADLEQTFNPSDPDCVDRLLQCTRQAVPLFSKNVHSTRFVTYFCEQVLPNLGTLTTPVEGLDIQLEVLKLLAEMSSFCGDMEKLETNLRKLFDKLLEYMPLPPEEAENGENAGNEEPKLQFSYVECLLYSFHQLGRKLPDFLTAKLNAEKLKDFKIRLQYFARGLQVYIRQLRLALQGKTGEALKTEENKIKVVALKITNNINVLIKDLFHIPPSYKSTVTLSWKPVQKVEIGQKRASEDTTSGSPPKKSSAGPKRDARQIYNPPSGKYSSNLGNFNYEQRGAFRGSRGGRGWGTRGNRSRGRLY

[5] = biological target: ATR, endogenous (human (endogenous in MCF7)), Q13535; details: remark: other sources report otherwise

B1: Apoptosis inhibitor 5 (Api5), endogenous (protein, UniProt Q9BZZ5 1-524)
chain: MPTVEELYRNYGILADATEQVGQHKDAYQVILDGVKGGTKEKRLAAQFIPKFFKHFPELADSAINAQLDLCEDEDVSIRRQAIKELPQFATGENLPRVADILTQLLQTDDSAEFNLVNNALLSIFKMDAKGTLGGLFSQILQGEDIVRERAIKFLSTKLKTLPDEVLTKEVEELILTESKKVLEDVTGEEFVLFMKILSGLKSLQTVSGRQQLVELVAEQADLEQTFNPSDPDCVDRLLQCTRQAVPLFSKNVHSTRFVTYFCEQVLPNLGTLTTPVEGLDIQLEVLKLLAEMSSFCGDMEKLETNLRKLFDKLLEYMPLPPEEAENGENAGNEEPKLQFSYVECLLYSFHQLGRKLPDFLTAKLNAEKLKDFKIRLQYFARGLQVYIRQLRLALQGKTGEALKTEENKIKVVALKITNNINVLIKDLFHIPPSYKSTVTLSWKPVQKVEIGQKRASEDTTSGSPPKKSSAGPKRDARQIYNPPSGKYSSNLGNFNYEQRGAFRGSRGGRGWGTRGNRSRGRLY
[1]
  binding: binds
[2]
  binding: binds
[3]
  binding: binds

B2: FBXW2, endogenous (protein, UniProt Q9UKT8 1-454)
chain: MERKDFETWLDNISVTFLSLTDLQKNETLDHLISLSGAVQLRHLSNNLETLLKRDFLKLLPLELSFYLLKWLDPQTLLTCCLVSKQWNKVISACTEVWQTACKNLGWQIDDSVQDALHWKKVYLKAILRMKQLEDHEAFETSSLIGHSARVYALYYKDGLLCTGSDDLSAKLWDVSTGQCVYGIQTHTCAAVKFDEQKLVTGSFDNTVACWEWSSGARTQHFRGHTGAVFSVDYNDELDILVSGSADFTVKVWALSAGTCLNTLTGHTEWVTKVVLQKCKVKSLLHSPGDYILLSADKYEIKIWPIGREINCKCLKTLSVSEDRSICLQPRLHFDGKYIVCSSALGLYQWDFASYDILRVIKTPEIANLALLGFGDIFALLFDNRYLYIMDLRTESLISRWPLPEYRKSKRGSSFLAGEASWLNGLDGHNDTGLVFATSMPDHSIHLVLWKEHG
[4]
  binding: binds

B3: mCherry-tagged Api5, Q9BZZ5 1-524 (protein)
chain: MPTVEELYRNYGILADATEQVGQHKDAYQVILDGVKGGTKEKRLAAQFIPKFFKHFPELADSAINAQLDLCEDEDVSIRRQAIKELPQFATGENLPRVADILTQLLQTDDSAEFNLVNNALLSIFKMDAKGTLGGLFSQILQGEDIVRERAIKFLSTKLKTLPDEVLTKEVEELILTESKKVLEDVTGEEFVLFMKILSGLKSLQTVSGRQQLVELVAEQADLEQTFNPSDPDCVDRLLQCTRQAVPLFSKNVHSTRFVTYFCEQVLPNLGTLTTPVEGLDIQLEVLKLLAEMSSFCGDMEKLETNLRKLFDKLLEYMPLPPEEAENGENAGNEEPKLQFSYVECLLYSFHQLGRKLPDFLTAKLNAEKLKDFKIRLQYFARGLQVYIRQLRLALQGKTGEALKTEENKIKVVALKITNNINVLIKDLFHIPPSYKSTVTLSWKPVQKVEIGQKRASEDTTSGSPPKKSSAGPKRDARQIYNPPSGKYSSNLGNFNYEQRGAFRGSRGGRGWGTRGNRSRGRLY
[5]
  binding: binds
